For some of these results: Expression values are those of the mRNA of the gene that encodes the peptide; a gene is named only where it was looked up.
Key:
Design in all cases: species or system human
[1] = system: HLA-A*02 molecules of primary tumors; test: Identification and relative LC-MS quantitation of HLA-A*02 tumor-associated peptides presented on tissue samples (XPRESIDENT presentation profiles)
[2] = system: source genes of selected peptides; test: Expression profiling of source genes by in-house RNAseq, tumor vs normal tissues (target coverage); conditions: for Target coverage, over-expression of source gene, AML: AML (N = 7), over-expression = more than 1.5-fold higher expression on tumor vs highest-expressing relevant normal tissue; for Target coverage, over-expression of source gene, AML / Target coverage, over-expression of source gene, BRCA / Target coverage, over-expression of source gene, CLL / Target coverage, over-expression of source gene, CRC / Target coverage, over-expression of source gene, GB / Target coverage, over-expression of source gene, HCC / Target coverage, over-expression of source gene, OC / Target coverage, over-expression of source gene, OSCAR / Target coverage, over-expression of source gene, PC / Target coverage, over-expression of source gene, RCC / Target coverage, over-expression of source gene, SCLC / Target coverage, over-expression of source gene, pNSCLC: in-house RNASeq; for Target coverage, over-expression of source gene, BRCA: BRCA (N = 10); for Target coverage, over-expression of source gene, BRCA / Target coverage, over-expression of source gene, CLL / Target coverage, over-expression of source gene, CRC / Target coverage, over-expression of source gene, GB / Target coverage, over-expression of source gene, HCC / Target coverage, over-expression of source gene, OC / Target coverage, over-expression of source gene, OSCAR / Target coverage, over-expression of source gene, PC / Target coverage, over-expression of source gene, RCC / Target coverage, over-expression of source gene, SCLC / Target coverage, over-expression of source gene, pNSCLC: over-expression = more than 1.5-fold vs highest normal tissue; for Target coverage, over-expression of source gene, CLL: CLL (N = 10); for Target coverage, over-expression of source gene, CRC: CRC (N = 20); for Target coverage, over-expression of source gene, GB: GB (N = 24); for Target coverage, over-expression of source gene, HCC: HCC (N = 15); for Target coverage, over-expression of source gene, OC: OC (N = 12); for Target coverage, over-expression of source gene, OSCAR: OSCAR (N = 11); for Target coverage, over-expression of source gene, PC: PC (N = 26); for Target coverage, over-expression of source gene, RCC: RCC (N = 10); for Target coverage, over-expression of source gene, SCLC: SCLC (N = 10); for Target coverage for source genes of selected peptides, GBC_CCC (N = 10): gallbladder adenocarcinoma and cholangiocarcinoma; for Target coverage for source genes of selected peptides, GBC_CCC (N = 10) / Target coverage for source genes of selected peptides, GC (N = 11) / Target coverage for source genes of selected peptides, HNSCC (N = 10) / Target coverage for source genes of selected peptides, MEL (N = 10) / Target coverage for source genes of selected peptides, NHL (N = 10) / Target coverage for source genes of selected peptides, PCA (n = 10) / Target coverage for source genes of selected peptides, UBC (N = 10) / Target coverage for source genes of selected peptides, UTC (N = 10): share of tumors with more than 1.5-fold higher expression than the highest-expressing relevant normal tissue, in-house RNAseq; for Target coverage for source genes of selected peptides, GC (N = 11): gastric cancer; for Target coverage for source genes of selected peptides, HNSCC (N = 10): head and neck small cell carcinoma; for Target coverage for source genes of selected peptides, MEL (N = 10): melanoma; for Target coverage for source genes of selected peptides, NHL (N = 10): non-Hodgkin lymphoma; for Target coverage, over-expression of source gene, pNSCLC: pNSCLC (N = 11); for Target coverage for source genes of selected peptides, PCA (n = 10): prostate cancer and benign prostate hyperplasia; for Target coverage for source genes of selected peptides, UBC (N = 10): urinary bladder cancer; for Target coverage for source genes of selected peptides, UTC (N = 10): uterine cancer
[3] = system: source genes of selected peptides; test: Target coverage of source genes in tumor entities based on TCGA Research Network data; conditions: over-expressed = more than 2-fold above the highest 75% percentile of normal organs; for Target coverage, over-expression category of source gene, BLCA (N = 408): Bladder urothelial carcinoma; for Target coverage, over-expression category of source gene, CESC (N = 307): Cervical squamous cell carcinoma and endocervical adenocarcinoma; for Target coverage, over-expression category of source gene, HNSC (N = 521): Head and neck squamous cell carcinoma; for Target coverage, over-expression category of source gene, CHOL (N = 36): Cholangiocarcinoma
[4] = system: HLA-A*24 molecules of primary tumors; test: Identification and relative LC-MS quantitation of HLA-A*24 tumor-associated peptides presented on tissue samples (XPRESIDENT presentation profiles); conditions: Table 9B: selected HLA-A*24 peptides; presentation on additional cancer entities
[5] = Table 8A: selected HLA-A*02-binding tumor-associated peptides, cancer entities on which the peptide was found presented
[6] = Table 8B: selected HLA-A*02 peptides, presentation on additional cancer entities

32: peptide found in PRKDC (gene looked up) (ILADEAFFSV; listed as Homo sapiens) [compound 32]
Peptide Presentation on cancer entities [1, 5]: CLL, PC, GB, UBC, PCA, CRC, SCLC, HCC, RCC, OC, NSCLC, MEL, OSCAR, clPC, GC, BRCA, NHL | Peptide Presentation on cancer entities [1, 6]: HNSCC, UTC, AML, GBC_CCC | Target coverage, over-expression of source gene, AML [2]: I (<19% over-expression = I) | Target coverage, over-expression of source gene, BRCA [2]: III (50-69% = III) | Target coverage, over-expression of source gene, CLL [2]: I (<19% over-expression = I) | Target coverage, over-expression of source gene, CRC [2]: II (20-49% = II) | Target coverage, over-expression of source gene, GB [2]: III (50-69% = III) | Target coverage, over-expression of source gene, HCC [2]: I (<19% over-expression = I) | Target coverage, over-expression of source gene, OC [2]: III (50-69% = III) | Target coverage, over-expression of source gene, OSCAR [2]: II (20-49% = II) | Target coverage, over-expression of source gene, PC [2]: I (<19% over-expression = I) | Target coverage, over-expression of source gene, RCC [2]: I (<19% over-expression = I) | Target coverage, over-expression of source gene, SCLC [2]: IV (>70% = IV) | Target coverage for source genes of selected peptides, GBC_CCC (N = 10) [2]: I (<19% over-expression = I) | Target coverage for source genes of selected peptides, GC (N = 11) [2]: I (<19% over-expression = I) | Target coverage for source genes of selected peptides, HNSCC (N = 10) [2]: I (<19% over-expression = I) | Target coverage for source genes of selected peptides, MEL (N = 10) [2]: II (20-49% = II) | Target coverage for source genes of selected peptides, NHL (N = 10) [2]: II (20-49% = II) | Target coverage, over-expression of source gene, pNSCLC [2]: III (50-69% = III) | Target coverage for source genes of selected peptides, PCA (n = 10) [2]: I (<19% over-expression = I) | Target coverage for source genes of selected peptides, UBC (N = 10) [2]: I (<19% over-expression = I) | Target coverage for source genes of selected peptides, UTC (N = 10) [2]: I (<19% over-expression = I) | Target coverage, over-expression category of source gene, BLCA (N = 408) [3]: C (>=5% of tumors above the cutoff, but <20%) | Target coverage, over-expression category of source gene, CESC (N = 307) [3]: C (>=5% of tumors above the cutoff, but <20%) | Target coverage, over-expression category of source gene, HNSC (N = 521) [3]: B (>=20% of tumors above the cutoff, but <50%) | Target coverage, over-expression category of source gene, SARC (N = 263) ([3]; Sarcoma): C (>=5% of tumors above the cutoff, but <20%) | Target coverage, over-expression category of source gene, SKCM (N = 473) ([3]; Skin cutaneous melanoma): C (>=5% of tumors above the cutoff, but <20%) | Target coverage, over-expression category of source gene, STAD (N = 415) ([3]; Stomach adenocarcinoma): B (>=20% of tumors above the cutoff, but <50%) | Target coverage, over-expression category of source gene, TGCT (N = 156) ([3]; Testicular germ cell tumors): B (>=20% of tumors above the cutoff, but <50%) | Target coverage, over-expression category of source gene, UCS (N = 57) ([3]; Uterine carcinosarcoma): B (>=20% of tumors above the cutoff, but <50%) | Target coverage, over-expression category of source gene, UVM (N = 80) ([3]; Uveal melanoma): C (>=5% of tumors above the cutoff, but <20%)

50 (EYALLYHTL; listed as Homo sapiens) [compound 50]
Peptide Presentation on cancer entities [1, 6]: GBC_CCC | Peptide Presentation on cancer entities [4]: PCA, HCC, NSCLC, CRC, GC, RCC

54: peptide found in ITGA2 (gene looked up) (FINPKGNWLL; listed as Homo sapiens) [compound 54]
Peptide Presentation on cancer entities [1, 5]: UBC, NSCLC, clPC | Peptide Presentation on cancer entities [1, 6]: UTC, HNSCC | Target coverage, over-expression of source gene, AML [2]: I (<19% over-expression = I) | Target coverage, over-expression of source gene, BRCA [2]: I (<19% over-expression = I) | Target coverage, over-expression of source gene, CLL [2]: I (<19% over-expression = I) | Target coverage, over-expression of source gene, CRC [2]: I (<19% over-expression = I) | Target coverage, over-expression of source gene, GB [2]: I (<19% over-expression = I) | Target coverage, over-expression of source gene, HCC [2]: I (<19% over-expression = I) | Target coverage, over-expression of source gene, OC [2]: I (<19% over-expression = I) | Target coverage, over-expression of source gene, OSCAR [2]: I (<19% over-expression = I) | Target coverage, over-expression of source gene, PC [2]: II (20-49% = II) | Target coverage, over-expression of source gene, RCC [2]: I (<19% over-expression = I) | Target coverage, over-expression of source gene, SCLC [2]: I (<19% over-expression = I) | Target coverage, over-expression of source gene, pNSCLC [2]: II (20-49% = II) | Target coverage, over-expression category of source gene, BLCA (N = 408) [3]: C (>=5% of tumors above the cutoff, but <20%) | Target coverage, over-expression category of source gene, CESC (N = 307) [3]: C (>=5% of tumors above the cutoff, but <20%) | Target coverage, over-expression category of source gene, CHOL (N = 36) [3]: C (>=5% of tumors above the cutoff, but <20%) | Target coverage, over-expression category of source gene, HNSC (N = 521) [3]: C (>=5% of tumors above the cutoff, but <20%)

335: peptide found in NUP210 (gene looked up) (VLLAAGPSAA; listed as Homo sapiens) [compound 335]
Peptide Presentation on cancer entities [1, 5]: UBC, CLL, NSCLC, GC, clPC | Peptide Presentation on cancer entities [1, 6]: AML, CRC, UTC, NHL | Target coverage, over-expression of source gene, AML [2]: I (<19% over-expression = I) | Target coverage, over-expression of source gene, BRCA [2]: I (<19% over-expression = I) | Target coverage, over-expression of source gene, CLL [2]: II (20-49% = II) | Target coverage, over-expression of source gene, CRC [2]: I (<19% over-expression = I) | Target coverage, over-expression of source gene, GB [2]: I (<19% over-expression = I) | Target coverage, over-expression of source gene, HCC [2]: I (<19% over-expression = I) | Target coverage, over-expression of source gene, OC [2]: I (<19% over-expression = I) | Target coverage, over-expression of source gene, OSCAR [2]: I (<19% over-expression = I) | Target coverage, over-expression of source gene, PC [2]: I (<19% over-expression = I) | Target coverage, over-expression of source gene, RCC [2]: I (<19% over-expression = I) | Target coverage, over-expression of source gene, SCLC [2]: II (20-49% = II) | Target coverage for source genes of selected peptides, GBC_CCC (N = 10) [2]: I (<19% over-expression = I) | Target coverage for source genes of selected peptides, GC (N = 11) [2]: I (<19% over-expression = I) | Target coverage for source genes of selected peptides, HNSCC (N = 10) [2]: I (<19% over-expression = I) | Target coverage for source genes of selected peptides, MEL (N = 10) [2]: I (<19% over-expression = I) | Target coverage for source genes of selected peptides, NHL (N = 10) [2]: III (50-69% = III) | Target coverage, over-expression of source gene, pNSCLC [2]: I (<19% over-expression = I) | Target coverage for source genes of selected peptides, PCA (n = 10) [2]: I (<19% over-expression = I) | Target coverage for source genes of selected peptides, UBC (N = 10) [2]: I (<19% over-expression = I) | Target coverage for source genes of selected peptides, UTC (N = 10) [2]: I (<19% over-expression = I) | Target coverage, over-expression category of source gene, BLCA (N = 408) [3]: B (>=20% of tumors above the cutoff, but <50%) | Target coverage, over-expression category of source gene, CESC (N = 307) [3]: A (>=50% of tumors above the cutoff) | Target coverage, over-expression category of source gene, CHOL (N = 36) [3]: C (>=5% of tumors above the cutoff, but <20%) | Target coverage, over-expression category of source gene, HNSC (N = 521) [3]: C (>=5% of tumors above the cutoff, but <20%) | Target coverage, over-expression category of source gene, DLBC (N = 48) ([3]; Lymphoid neoplasm diffuse large B-cell lymphoma): A (>=50% of tumors above the cutoff) | Target coverage, over-expression category of source gene, MESO (N = 87) ([3]; Mesothelioma): C (>=5% of tumors above the cutoff, but <20%)
